Assay results published in patent US5496697A, “Methods and apparatus for detecting the effect of cell affecting agents on living cells” (priority 1993, dated 1996).
For at least one compound, name, drawing or mass did not settle the structure.

Tested on: Proteus mirabilis
Assay type: cell-based
Conditions: carbon source in medium; FIG. 22
Excerpt: While this method of serial delivery of selective substrates has certain potential advantages, parallel delivery of selective substrates to separate catches of bacteria could also be useful under certain circumstances. Furthermore, if bacteria are used for screening for antibiotic susceptibility or antibiotic activity, parallel delivery to separate catches may well be more appropriate because of potential problems of intereactions of drugs.
The bacteria, E. coli and Proteus mirabilis , were prepared as suspensions of about 5×10^8 cells/mL in a growth medium and then diluted into a sterile test medium containing glucose (Bactopeptone, 2 g/L; NACl, 5 g/L; K2 HPO4, 1.7 mM; glucose, 1 g/L; pH 7.3 ). With the controlling electrode piston in the raised position, as disclosed in pending U.S. patent application, Ser. No. 876,925, filed Jun. 20, 1986, now U.S. Pat. No. 5,292,846 one mL of bacterial suspension containing a known number of bacteria was flowed through the device such that the cells were retained adjacent to the silicon sensor surface by a Nucleopore membrane situated parallel to the surface. The cells were pulsed with the same glucose containing test medium, the piston was then lowered to decrease the volume surrounding the cells, and the change in pH due to bacterial metabolism was monitored. […] After lowering the piston the pH change was again monitored. […]

CC(=O)C(=O)O [pyruvate]
change of pH: decreased the pH
